In PMC3333781, “Systematic mapping of two component response regulators to gene targets in a model sulfate reducing bacterium”:

Biological target: T1, DVU2114 response regulator (Desulfovibrio vulgaris Hildenborough) (UniProt Q72A83)
T1 sequence (looked up, limits assumed): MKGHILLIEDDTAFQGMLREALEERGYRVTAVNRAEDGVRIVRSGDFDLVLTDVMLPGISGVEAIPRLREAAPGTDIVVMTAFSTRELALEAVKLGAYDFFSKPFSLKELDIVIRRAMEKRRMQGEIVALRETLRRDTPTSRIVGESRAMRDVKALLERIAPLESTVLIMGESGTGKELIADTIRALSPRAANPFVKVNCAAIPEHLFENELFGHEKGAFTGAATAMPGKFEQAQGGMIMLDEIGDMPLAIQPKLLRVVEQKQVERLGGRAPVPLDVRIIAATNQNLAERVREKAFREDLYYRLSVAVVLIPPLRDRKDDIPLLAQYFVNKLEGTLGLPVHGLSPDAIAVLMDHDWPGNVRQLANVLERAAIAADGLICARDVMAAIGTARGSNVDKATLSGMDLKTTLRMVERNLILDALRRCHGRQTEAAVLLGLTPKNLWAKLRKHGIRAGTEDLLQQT
Test: EMSA
Settings: 10 mM Tris-HCl pH 7.5, 1 mM DTT, 50 mM KCl, 5 mM MgCl2, 25% glycerol, 1 ug/ml poly dI-dC, 50-100 fmol biotinylated DNA, 25-30 C, 20 min; recombinant protein; protein details: C-terminal V5-6xHis; label: 5'-biotin top strand

Sequence: ACCGGGCCACTCTACAAATCATAGATGCCCATCGC (double strand) [DVU2116 motif wt]
- binding result: binds

The exact form of at least one protein or probe is not confirmed. Protein sequences can lack the tags named with them.
